Data on 25 molecules can be found in the supplement of paper PMC12823440, “Inhibitors supercharge kinase turnover through native proteolytic circuits” (Nature, 2025).

Protein sequences, listed by entry. Tags and fused reporters are not part of them.
UniProt P50750, whole entry: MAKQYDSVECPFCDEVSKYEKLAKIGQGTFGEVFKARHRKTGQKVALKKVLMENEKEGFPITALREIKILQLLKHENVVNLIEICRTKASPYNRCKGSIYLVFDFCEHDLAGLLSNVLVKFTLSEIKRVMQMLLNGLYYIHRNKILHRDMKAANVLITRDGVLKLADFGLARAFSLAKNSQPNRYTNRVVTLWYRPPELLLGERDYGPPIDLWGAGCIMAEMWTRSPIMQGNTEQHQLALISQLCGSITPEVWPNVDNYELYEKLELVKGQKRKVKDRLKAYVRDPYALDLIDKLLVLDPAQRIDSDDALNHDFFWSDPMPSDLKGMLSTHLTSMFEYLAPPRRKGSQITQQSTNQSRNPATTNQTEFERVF

Molecules are shown by their SMILES. Where a name gives a salt, the structure may show the parent alone. The list shows a part of the results. The calls rarely recur for the same compound in another form.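 Kinases were expressed as nanoluciferase fusions in K562 cells and luminescence was read every 4 h between 2 and 18 h as percent of control, DMSO set to 100% and a positive control to 0%. A time point counts as decreased when the signal drops significantly (2 sigma). The hit call is the authors' own, does not follow from the count of time points alone, and its rule is not shown.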

The experiment deals with CDK9 (UniProt P50750). The experiment can be described thus: number of time points (of 4; 2 h point missing) at which kinase-Nluc abundance scored as decreased, DMSO-normalised (count); higher = more persistent destabilization. As to conditions: 10 µM; K562; 2-18 h.
`COc1ncc(F)cc1CNc1ccc(Cc2c[nH]c3ncc(C)cc23)c(F)n1` [PLX5622 (hemifumarate)]: the “number of time points” value came out at 0. Under `C#Cc1cccc(Nc2ncnc3cc(OCCOC)c(OCCOC)cc23)c1` [Erlotinib] stands 0; under `Oc1cccc(-c2nc(N3CCOCC3)c3oc4ncccc4c3n2)c1`, 1. Take `C#Cc1cccc(Nc2ncnc3cc(OCCOC)c(OCCO)cc23)c1` [Desmethyl Erlotinib (hydrochloride)]: the “number of time points” value came to 0. Regarding `C[C@@H](N)[C@H]1CC[C@H](C(=O)Nc2ccncc2)CC1`, the “number of time points” value came out at 0. The value for `C#Cc1cccc(Nc2ncnc3cc4c(cc23)OCCOCCOCCO4)c1` [Icotinib] was 0; that for `C#Cc1cccc(Nc2ncnc3cc4c(cc23)OCCOCCOCCO4)c1` [Icotinib (Hydrochloride)] was 0. The value for `O=C(c1ccc(F)c(F)c1Nc1ccc(I)cc1F)N1CC(O)([C@@H]2CCCCN2)C1` [Cobimetinib] was 0.

As to `COc1cc2nccc(Nc3cc(OC)c(OC)c(OC)c3)c2cc1OC` [GAK inhibitor 49 (hydrochloride)], the “number of time points” value turned out to be 1. As to `O=C(c1ccc(F)c(F)c1Nc1ccc(I)cc1F)N1CC(O)([C@@H]2CCCCN2)C1` [Cobimetinib (hemifumarate)], the “number of time points” value was 0. The value for `C=CC(=O)Nc1cc(Nc2ncc(C(=O)OC(C)C)c(-c3cn(C)c4ccccc34)n2)c(OC)cc1N(C)CCN(C)C` [Mobocertinib (succinate)] was 0; that for `CNC(=O)c1ccccc1Nc1cc(Nc2ccc(N3CCOCC3)cc2OC)ncc1C(F)(F)F` [PND-1186 (hydrochloride)] was 0; that for `Cc1cccc(/C=N/Nc2cc(N3CCOCC3)nc(OCCc3ccccn3)n2)c1` [Apilimod (mesylate)] was 0. The value for `O=C(O)c1ccc2c(c1)nc(Nc1cccc(Cl)c1)c1ccncc12` [Silmitasertib (sodium salt)] was 0; that for `C[C@H](CCC(=O)NCCS(=O)(=O)O)[C@H]1CC[C@H]2[C@@H]3[C@@H](O)C[C@@H]4C[C@H](O)CC[C@]4(C)[C@H]3CC[C@]12C` [Tauroursodeoxycholate (dihydrate)] was 0. As to `COc1cc2c(cc1OC)-c1c(C)c3ccc(OC)c(OC)c3c[n+]1CC2` [Dehydrocorydaline (chloride)], the “number of time points” value is 0.

As to `Clc1ccc(C2(c3ccc(-c4cn[nH]c4)cc3)CCNCC2)cc1`, the “number of time points” value is 1. Under `CCCC(=O)Nc1ncnc2c1ncn2[C@@H]1O[C@@H]2COP(=O)(O)O[C@H]2[C@H]1OC(=O)CCC` [Bucladesine (calcium)] stands 0. Under `CCS(=O)(=O)N1CCN(c2ccc(Nc3ncc(C(N)=O)c(NC4CC4)n3)cc2)CC1` [Cerdulatinib] stands 0. Under `CCS(=O)(=O)N1CC(CC#N)(n2cc(-c3ncnc4[nH]ccc34)cn2)C1` [Baricitinib (phosphate)] stands 0; under `FC(F)(F)c1ccc(CNc2ccc(Cc3c[nH]c4ncc(Cl)cc34)cn2)cn1` [Pexidartinib (hydrochloride)], 0. On to `O=C(Nc1cnn2ccc(N3CCC[C@@H]3c3cc(F)ccc3F)nc12)N1CC[C@H](O)C1` [Larotrectinib sulfate], for which the “number of time points” value is 0. As to `C[C@@H](N)c1ccc(C(=O)Nc2ccnc3[nH]ccc23)cc1`, the “number of time points” value amounted to 0. The value for `C[S+]([O-])c1ccc(-c2nc(-c3ccc(F)cc3)c(-c3ccncc3)[nH]2)cc1` (stereo not given) was 0; that for `CS(=O)(=O)N1CCN(Cc2cc3nc(-c4cccc5[nH]ncc45)nc(N4CCOCC4)c3s2)CC1` [Pictilisib (dimethanesulfonate)] was 0.
